PubChem BioAssay AID1159595 – NIAID | 2016

- Purpose: 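How silencing each gene alters a Tnf reporter after TLR2 stimulation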 (primary screen)
- Cells: mouse RAW264.7 macrophage reporter cells
- Knock-down reagent: single siRNA against mouse genes
- Timing: assayed 48 to 72 hours after siRNA transfection; ligand applied for 16 hours
- Challenge: Pam3CSK4 (TLR2 ligand) for 16 hours before fixation; dose not given
- Measured: 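High-content imaging of Tnf promoter-driven nuclear mCherry in cells given Pam3CSK4 for 16 h, 48–72 h after transfection; value is the replicate mean of plate-normalised background-corrected robust z-scores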
- Scale: Tnf reporter z-score (replicate mean): higher = stronger Tnf promoter reporter signal than negative control wells
- Hit rule: 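An siRNA is active when its replicate-mean z-score is -1.5 or lower or 1.5 or higher (activity score at least 50); activity graded at absolute z 1, 1.5, 2 and 2.5; calls apply to single siRNAs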
- Meaning of the calls: active = strong change (up or down); inactive = little change
In all, the deposit lists 756 reagents; this is a random part of them. Of all reagents, 115 (15%) were called active. 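Active calls cover both lowered and raised reporter signal; each score refers to one siRNA rather than a whole gene.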 A number with no mark means an inactive call. The record does not give: the amount of reagent.

Against Irf7 (GeneID 54123) [SID303071704], the entry reads Tnf reporter z-score (replicate mean) = -2 (active). After knock-down of Irf7 (GeneID 54123) [SID303071705], the screen gave Tnf reporter z-score (replicate mean) = -1.24. With knock-down of Irf7 (GeneID 54123) [SID303071706], the screen gave Tnf reporter z-score (replicate mean) = -0.667. Irf7 (GeneID 54123) [SID303071707] showed Tnf reporter z-score (replicate mean) = 0.935. Irf7 (GeneID 54123) [SID303071708] gave Tnf reporter z-score (replicate mean) = 0.141. Knock-down of Irf7 (GeneID 54123) [SID303071709] gave: Tnf reporter z-score (replicate mean) = 0.00285.

Mapk12 (GeneID 29857) [SID303071530] showed Tnf reporter z-score (replicate mean) = -0.0719. Knock-down of Mapk12 (GeneID 29857) [SID303071531] resulted in: Tnf reporter z-score (replicate mean) = -0.247. Silencing of Mapk12 (GeneID 29857) [SID303071532] gave: Tnf reporter z-score (replicate mean) = 0.169. With knock-down of Mapk12 (GeneID 29857) [SID303071533] the results were Tnf reporter z-score (replicate mean) = 1.55 (active). Against Mapk12 (GeneID 29857) [SID303071534] the deposit lists Tnf reporter z-score (replicate mean) = -0.532. Against Mapk12 (GeneID 29857) [SID303071535], the values are Tnf reporter z-score (replicate mean) = -1.65 (active).

4 entries already listed, arranged by “Tnf reporter z-score (replicate mean)”, highest first.
Irf7 (GeneID 54123) [SID303071707]: Tnf reporter z-score (replicate mean) = 0.935
Irf7 (GeneID 54123) [SID303071708]: Tnf reporter z-score (replicate mean) = 0.141
Irf7 (GeneID 54123) [SID303071706]: Tnf reporter z-score (replicate mean) = -0.667
Irf7 (GeneID 54123) [SID303071705]: Tnf reporter z-score (replicate mean) = -1.24

The list goes on.
For Tnfaip3 (GeneID 21929) [SID303071914], the entry reads Tnf reporter z-score (replicate mean) = 1.39. Tnfaip3 (GeneID 21929) [SID303071915] gave Tnf reporter z-score (replicate mean) = 0.2. For Tnfaip3 (GeneID 21929) [SID303071916], the values are Tnf reporter z-score (replicate mean) = -0.242. Against Tnfaip3 (GeneID 21929) [SID303071917] the deposit lists Tnf reporter z-score (replicate mean) = 0.698. For Tnfaip3 (GeneID 21929) [SID303071918], the entry reads Tnf reporter z-score (replicate mean) = 0.793. Knock-down of Tnfaip3 (GeneID 21929) [SID303071919] gave: Tnf reporter z-score (replicate mean) = 0.896.

Tlr7 (GeneID 170743) [SID303071230] gave Tnf reporter z-score (replicate mean) = -1.12. Tlr7 (GeneID 170743) [SID303071231] scored Tnf reporter z-score (replicate mean) = -1.33. Tlr7 (GeneID 170743) [SID303071232] gave Tnf reporter z-score (replicate mean) = -0.522. Against Tlr7 (GeneID 170743) [SID303071233], the values are Tnf reporter z-score (replicate mean) = 0.355. Silencing of Tlr7 (GeneID 170743) [SID303071234] gave: Tnf reporter z-score (replicate mean) = 1.05. Tlr7 (GeneID 170743) [SID303071235] gave Tnf reporter z-score (replicate mean) = -0.107.

After knock-down of Arf6 (GeneID 11845) [SID303071278], the record shows Tnf reporter z-score (replicate mean) = -0.313. Against Arf6 (GeneID 11845) [SID303071279] the deposit lists Tnf reporter z-score (replicate mean) = 0.841. Against Arf6 (GeneID 11845) [SID303071280] the deposit lists Tnf reporter z-score (replicate mean) = 0.0089. Arf6 (GeneID 11845) [SID303071281] showed Tnf reporter z-score (replicate mean) = 0.394. Knock-down of Arf6 (GeneID 11845) [SID303071282] came out at: Tnf reporter z-score (replicate mean) = 1.48. Arf6 (GeneID 11845) [SID303071283] gave Tnf reporter z-score (replicate mean) = 0.883.

With knock-down of Il12b (GeneID 16160) [SID303071830], the record shows Tnf reporter z-score (replicate mean) = -1.59 (active). Il12b (GeneID 16160) [SID303071831] showed Tnf reporter z-score (replicate mean) = -0.395. Il12b (GeneID 16160) [SID303071832] showed Tnf reporter z-score (replicate mean) = -0.633. After knock-down of Il12b (GeneID 16160) [SID303071833], the record shows Tnf reporter z-score (replicate mean) = 1.01. Against Il12b (GeneID 16160) [SID303071834], the values are Tnf reporter z-score (replicate mean) = -1.51 (active). Knock-down of Il12b (GeneID 16160) [SID303071835] resulted in: Tnf reporter z-score (replicate mean) = 0.154.
